Source: patent publication US20250002503A1, “OXADIAZASPIRO COMPOUNDS FOR USE IN THE TREATMENT OF MOTONEURON DEGENERATION OR IN NEUROPROTECTION” (ESTEVE PHARMACEUTICALS, S.A., priority 2021, published 2025)
Some results were stated once for a whole list of compounds, not compound by compound.

Test system: different receptors, ion channels, transporters and enzymes
Test: Selectivity profile (Spectrum Screen), panel with more than 180 binding assays at EurofinsPanlabs
Conditions: at 10 μM; apart from the Sig-1R

Q: Which “% inhibition for any of the targets of the selectivity panel” value does the source give for `C[C@@H]1OC2(CCN(Cc3ccc(F)cc3)CC2)CN(C)C1=O` [Compound A, (S)-9-(4-fluorobenzyl)-2,4-dimethyl-1-oxa-4,9-diazaspiro[5.5]undecan-3-one] here?
A: Its value is < 50%.

Q: With `CCN1CC2(CCN(Cc3ccc(C#N)c(F)c3)CC2)O[C@@H](C)C1=O` [Compound B, (S)-4-((4-ethyl-2-methyl-3-oxo-1-oxa-4,9-diazaspiro[5.5]undecan-9-yl)methyl)-2-fluorobenzonitrile] as the compound, how does the “% inhibition for any of the targets of the selectivity panel” value read?
A: Its value is < 50%.
